The results are deposited in PubChem (AID743020; Broad Institute, 2013).

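HEK293 cells carrying a CMV promoter luciferase reporter, with luminescence read 24 h after treatment to check for nonspecific loss of reporter signal.
Percent change in reporter signal versus neutral control wells at the top tested concentration; more negative values mean stronger inhibition.
Inconclusive means the independent runs disagreed, the fit was flat at 30 to 70% inhibition, or the curve fit was poor.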

Values are in %.
Every entry below has the call inconclusive.
These entries are mostly ones the record files as inconclusive; other results of the assay are not listed here.

Compound,tested on / at,activity change (%)
COc1ccccc1NC(=O)c1nc(S(=O)(=O)Cc2ccccc2)ncc1Cl,at 35 µM (top of the series),-80.42
O=C(Nc1ccc([N+](=O)[O-])cc1)Nc1nc(-c2ccc(Cl)s2)cs1,at 35 µM (top of the series),-68.22
C[C@H]1CCCCO[C@H](CN(C)C(=O)Nc2ccc(C(F)(F)F)cc2)[C@@H](C)CN([C@@H](C)CO)C(=O)c2cc(NC(=O)Nc3ccc(F)cc3)ccc2O1,at 35 µM (top of the series),-33.03
C[C@@H]1CN([C@@H](C)CO)C(=O)Cc2cc(NS(=O)(=O)c3ccccc3)ccc2O[C@H]1CN(C)Cc1ccc(Cl)c(Cl)c1,at 35 µM (top of the series),-63.65
C[C@@H]1CN([C@@H](C)CO)C(=O)Cc2cc(NC(=O)Cc3ccccc3)ccc2O[C@H]1CN(C)Cc1ccc(-c2ccccc2)cc1,at 35 µM (top of the series),-34.74
O=C(NC1=C(NC2CCS(=O)(=O)C2)C(=O)c2ccccc2C1=O)c1ccccc1 (stereo not drawn),at 35 µM (top of the series),-3.878
Oc1c(I)cc(I)c2cccnc12,at 35 µM (top of the series),32.89
CC12CCC3C(CCC4(O)CC(O)CCC34C=O)C1(O)CCC2C1=CC(=O)OC1 (stereo not drawn),at 35 µM (top of the series),-83.25
CCN(CC)S(=O)(=O)c1cc([N+](=O)[O-])ccc1NNC(=O)Nc1ccc(Cl)c(Cl)c1,at 35 µM (top of the series),-62.48
C[C@@H]1CCCCO[C@H](CN(C)C(=O)Nc2ccc(C(F)(F)F)cc2)[C@@H](C)CN([C@@H](C)CO)C(=O)c2cc(NS(=O)(=O)c3ccccc3)ccc2O1,at 35 µM (top of the series),-22.28
CC(=NNc1ccc2ccccc2n1)c1ccccn1,at 35 µM (top of the series),-79.3
C[C@@H]1CN([C@@H](C)CO)C(=O)c2cc(NC(=O)CCC(F)(F)F)ccc2O[C@@H](C)CCCCO[C@H]1CN(C)Cc1ccc(C(F)(F)F)cc1,at 35 µM (top of the series),-45.73
O=C(Nc1ccc([N+](=O)[O-])cc1)C(=O)Nc1cccc(C(=O)O)c1,at 35 µM (top of the series),-61.8
O=c1c2ccccc2cnn1-c1nc2ccccc2[nH]1,at 35 µM (top of the series),-84.27
COc1ccc(/C=N/Nc2cc(C)nc3ccc(Br)cc23)cc1,at 35 µM (top of the series),-16.16
O=C1c2cccc3c(O)ccc(c23)C(=O)N1c1ccc(Cl)cc1,at 35 µM (top of the series),2.122
O=C(Nc1ccccc1)N1CCCCN2[C@H](C1)[C@@H](c1ccc(C#Cc3ccccc3)cc1)[C@@H]2CO,at 35 µM (top of the series),-24.67
CCN1CCN(Cc2ccc(NC(=O)c3ccc(C)c(NC(=O)C(=O)c4c[nH]c5ccccc45)c3)cc2C(F)(F)F)CC1,at 35 µM (top of the series),59.41
O=c1cc(-c2ccc(O)cc2)oc2ccc3ccccc3c12,at 35 µM (top of the series),-64.25
COc1ccc(NC(=O)Nc2ccc3c(c2)C(=O)N([C@H](C)CO)C[C@H](C)[C@H](CN(C)Cc2ccc(C(F)(F)F)cc2)OCCCC[C@H](C)O3)cc1,at 35 µM (top of the series),-59.85
NC(=O)c1ccsc1NC(=O)c1ccc([N+](=O)[O-])o1,at 35 µM (top of the series),127.8
COc1ccc(S(=O)(=O)Nc2ccc3c(c2)C(=O)N([C@H](C)CO)C[C@H](C)[C@H](CN(C)S(=O)(=O)c2ccc(F)cc2)OCCCC[C@H](C)O3)cc1,at 35 µM (top of the series),-16.16
O=c1c(Cl)c(Cl)cnn1Cc1nnc(-c2ccccc2Br)o1,at 35 µM (top of the series),-77.44
O=C(Nc1ccc2nc3n(c(=O)c2c1)CCCCC3)c1cc([N+](=O)[O-])ccc1F,at 35 µM (top of the series),67.79
Cc1ccc(S(=O)(=O)N(C)C[C@@H]2Oc3ccc(NC(=O)Nc4ccc(C(F)(F)F)cc4)cc3CC(=O)N([C@H](C)CO)C[C@@H]2C)cc1,at 35 µM (top of the series),-46.96

For reference, 3 entries once more:

{"compound": "O=C(Nc1ccc([N+](=O)[O-])cc1)C(=O)Nc1cccc(C(=O)O)c1", "tested on / at": "at 35 µM (top of the series)", "activity change (%)": "-61.8"}
{"compound": "CCN1CCN(Cc2ccc(NC(=O)c3ccc(C)c(NC(=O)C(=O)c4c[nH]c5ccccc45)c3)cc2C(F)(F)F)CC1", "tested on / at": "at 35 µM (top of the series)", "activity change (%)": "59.41"}
{"compound": "COc1ccccc1NC(=O)c1nc(S(=O)(=O)Cc2ccccc2)ncc1Cl", "tested on / at": "at 35 µM (top of the series)", "activity change (%)": "-80.42"}